Results on one molecule are retold here after paper doi:10.1101/2025.10.01.678329.

The experiment has as its target T1, Riplet-HA (human), Q8IUD6.
T1 chain: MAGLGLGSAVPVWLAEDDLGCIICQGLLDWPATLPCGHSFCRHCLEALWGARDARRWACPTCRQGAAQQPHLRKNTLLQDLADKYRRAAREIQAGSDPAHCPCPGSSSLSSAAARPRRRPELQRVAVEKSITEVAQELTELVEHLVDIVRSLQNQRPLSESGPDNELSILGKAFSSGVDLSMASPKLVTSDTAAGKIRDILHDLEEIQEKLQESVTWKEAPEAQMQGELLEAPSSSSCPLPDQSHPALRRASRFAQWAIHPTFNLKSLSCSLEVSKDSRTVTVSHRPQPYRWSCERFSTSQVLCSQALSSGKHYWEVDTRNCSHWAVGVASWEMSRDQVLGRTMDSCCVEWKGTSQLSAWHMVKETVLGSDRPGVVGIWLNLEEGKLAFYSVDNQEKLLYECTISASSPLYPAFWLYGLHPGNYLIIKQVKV
Description: cross-linking. To be noted: remark: other sources report otherwise.

Results are given in words; binding and its absence hold for the method and conditions named. Binding seen in cells or lysates may run through a third protein. Tags and fused reporters may be left off the sequences shown.

B1: Riplet-HA, Q8IUD6 1-432 (enzyme)
chain: T1 chain
Regarding B1, the binding entry is “no binding”.
